PubChem BioAssay AID1259405 – NCATS, 2018

Aim: 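Silenced genes that increase secreted GFP made by CHO cells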 (primary screen)
System: Chinese hamster CHO-K1 ovary cells with stable secreted eGFP expression
Reagent: single siRNA against mouse genes, 0.8 pmol siRNA per well (2 µl of 400 nM stock)
Duration: 3 days
Measurement: 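Per-well intracellular GFP measured by laser scanning cytometry, plus viability from ATP luminescence, each relative to plate median of non-targeting control wells, in %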
Reading the numbers: GFP, % of control: higher = more GFP per well, higher productivity; viability (ATP), % of control: higher = more viable cells (more ATP)
Hit rule: 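a knock-down is called active if GFP reaches 120% or more of non-targeting control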
Shown is one part, drawn at random, of about 50,000 deposited reagents. Of all reagents, about 4,000 (8%) got an active call. 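Mouse siRNA library applied to hamster cells; one well for each siRNA.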 Unmarked entries are inactive. The numbers tell different reagents against one gene apart.

gene,reagent no.,"GFP, % of control","viability (ATP), % of control"
Fam76b,1,129 (active),90.9
Fam76b,2,46.4,73.1
Fam76b,3,90.7,69.5
Hbb-b2,1,131 (active),117
Hbb-b2,2,110,83.4
Hbb-b2,3,77.6,62.7
Ppp4r3b,1,76.6,65.4
Ppp4r3b,2,73.9,91.3
Ppp4r3b,3,66.6,78
Or51a43,1,46.7,58.2
Or51a43,2,148 (active),69
Or51a43,3,50,80
Rmp24,1,39.4,60.3
Rmp24,2,73.9,103
Rmp24,3,78.9,97.1
Raver1,1,115,101
Raver1,2,73,91.4
Raver1,3,74.9,55.3
1700037C18Rik,1,58.7,72.5
1700037C18Rik,2,52.3,77.1
1700037C18Rik,3,103,82.3
Vmn1r33,1,97.2,89.5
Vmn1r33,2,85.9,93.7
Vmn1r33,3,62.4,89
Mdm4,1,84,78.1
Mdm4,2,92.6,55.6
Mdm4,3,70.6,95.8
Zfp747l1,1,112,73.8
Zfp747l1,2,60,80.7
Zfp747l1,3,67.6,89.5
Cebpd,1,64.8,38.9
Cebpd,2,78.2,73.7
Cebpd,3,96.9,92.4
Cntnap4,1,106,115
Cntnap4,2,131 (active),92.8
Cntnap4,3,127 (active),63.1
Dok1,1,80.7,47.1
Dok1,2,127 (active),93.4
Oas1f,1,142 (active),132
Oas1f,2,78.8,76.9
Oas1f,3,40.5,53.4
Csnk1g1,1,97.9,93.9
Csnk1g1,2,72.4,44.5
Csnk1g1,3,72.9,84
Crybb2,1,96,71.3
Crybb2,2,88.4,77.1
Crybb2,3,140 (active),133
Nxph1,1,87.2,91.5
Nxph1,2,54.3,60.8
Nxph1,3,68.4,65.6
Kdg4,1,115,69.1
Kdg4,2,71.7,33.7
Kdg4,3,70.4,69.8
Spire1,1,75.1,35.6
Spire1,2,38,43.3
Spire1,3,23.4,33.8
Fbxw11,1,73.2,72.5
Fbxw11,2,87,71.8
Fbxw11,3,70.1,78.7
